# Changes are numbered by the printed parent chain. For some of these results: The comparison behind a weaker result is the experiment's own reference, which may not be listed here. Tags and fusion partners may be left off the protein sequences shown. For some of these results: Construct, isoform or probe ends are uncertain for at least one entry. For some of these results: At least one verdict rests on a figure or table, not on a statement of the authors.
# Experiments:
# [1] = target: T1, RECQL4 427-1116 WT (Homo sapiens) (UniProt O94761); assay: EMSA; settings: 5 mM Mg2+, 0.1-10 uM protein, 100 nM DNA; Buffer D: 10 mM HEPES pH 7.5, 50 mM NaCl, 5 mM MgCl2, 2 mM DTT (EMSA, 100 nM Cy3-DNA, 6% native PAGE); temperature not stated; recombinant protein; residues 427-1116; protein details: GST tag removed by TEV
# T1 sequence (looked up): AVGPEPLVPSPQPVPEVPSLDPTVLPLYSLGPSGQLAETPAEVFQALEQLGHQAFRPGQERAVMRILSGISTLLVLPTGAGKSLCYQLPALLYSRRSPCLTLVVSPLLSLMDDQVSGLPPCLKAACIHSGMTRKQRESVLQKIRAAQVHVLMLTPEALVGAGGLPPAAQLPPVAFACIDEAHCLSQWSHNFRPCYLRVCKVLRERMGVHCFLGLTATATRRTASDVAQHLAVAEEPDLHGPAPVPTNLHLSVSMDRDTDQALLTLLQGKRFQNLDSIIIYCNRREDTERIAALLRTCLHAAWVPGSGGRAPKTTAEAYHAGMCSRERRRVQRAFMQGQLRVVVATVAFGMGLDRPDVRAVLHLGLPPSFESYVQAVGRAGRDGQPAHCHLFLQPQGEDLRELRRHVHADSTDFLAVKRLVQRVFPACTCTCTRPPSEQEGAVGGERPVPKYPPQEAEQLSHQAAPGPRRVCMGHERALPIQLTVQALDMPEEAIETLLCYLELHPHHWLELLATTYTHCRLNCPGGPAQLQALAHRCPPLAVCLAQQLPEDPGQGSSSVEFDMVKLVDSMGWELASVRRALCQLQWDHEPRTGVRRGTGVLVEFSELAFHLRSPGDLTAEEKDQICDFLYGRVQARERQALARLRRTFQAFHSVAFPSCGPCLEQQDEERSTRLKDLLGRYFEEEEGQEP
# [2] = target: T2, RECQL4 427-1116 P532S (Homo sapiens) (UniProt O94761); assay: EMSA; settings: 5 mM Mg2+, 0.1-10 uM protein, 100 nM DNA; Buffer D: 10 mM HEPES pH 7.5, 50 mM NaCl, 5 mM MgCl2, 2 mM DTT (EMSA, 100 nM Cy3-DNA, 6% native PAGE); temperature not stated; recombinant protein; residues 427-1116; protein details: GST tag removed by TEV
# T2 sequence (looked up): T1 sequence (looked up) with P106S
# [3] = target: T3, RECQL4 427-1116 R766Q (Homo sapiens) (UniProt O94761); assay: EMSA; settings: 5 mM Mg2+, 0.1-10 uM protein, 100 nM DNA; Buffer D: 10 mM HEPES pH 7.5, 50 mM NaCl, 5 mM MgCl2, 2 mM DTT (EMSA, 100 nM Cy3-DNA, 6% native PAGE); temperature not stated; recombinant protein; residues 427-1116; protein details: GST tag removed by TEV
# T3 sequence (looked up): T1 sequence (looked up) with R340Q
# [4] = target: T3, RECQL4 427-1116 R766Q (Homo sapiens); assay: MST; settings: 5 mM Mg2+, no ATP mentioned, Kd only in figure; Buffer D: 10 mM HEPES pH 7.5, 50 mM NaCl, 5 mM MgCl2, 2 mM DTT (EMSA, 100 nM Cy3-DNA, 6% native PAGE); MST with 10 nM Cy5-DNA, buffer not restated; temperature not stated; recombinant protein; residues 427-1116; protein details: GST tag removed by TEV
sequence,measurement,setting,value
CCATTCCACCCTCTATTTTTTTTTTTTTTT / TAGAGGGTGGAATGG [OH-Cy3/CQ dsDNA with 3' ss overhang (EMSA)],binding result,[1],binds
same,binding result,[2],binds
same,binding result,[3],binds more weakly
CCATTCCACCCTCTATTTTTTTTTTTTTTT / TAGAGGGTGGAATGG [OH-Cy5/CQ dsDNA with 3' ss overhang (MST)],binding result,[4],binds more weakly
